Data on 32 targets can be found in the supplement of paper PMC10849652.

Chains of the proteins cited; added tags and fusions are not shown. Lines headed by an entry give the natural chain unless they say otherwise; changes in a name come on top.
UniProt P47985: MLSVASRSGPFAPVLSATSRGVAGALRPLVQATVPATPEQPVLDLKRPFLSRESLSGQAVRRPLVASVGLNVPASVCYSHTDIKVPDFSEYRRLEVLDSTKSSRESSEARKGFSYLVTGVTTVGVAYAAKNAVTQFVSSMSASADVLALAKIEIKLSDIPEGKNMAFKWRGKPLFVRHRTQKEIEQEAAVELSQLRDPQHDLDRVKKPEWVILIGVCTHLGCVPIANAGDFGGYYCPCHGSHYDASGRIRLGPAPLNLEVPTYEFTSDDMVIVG
UniProt Q53GS9: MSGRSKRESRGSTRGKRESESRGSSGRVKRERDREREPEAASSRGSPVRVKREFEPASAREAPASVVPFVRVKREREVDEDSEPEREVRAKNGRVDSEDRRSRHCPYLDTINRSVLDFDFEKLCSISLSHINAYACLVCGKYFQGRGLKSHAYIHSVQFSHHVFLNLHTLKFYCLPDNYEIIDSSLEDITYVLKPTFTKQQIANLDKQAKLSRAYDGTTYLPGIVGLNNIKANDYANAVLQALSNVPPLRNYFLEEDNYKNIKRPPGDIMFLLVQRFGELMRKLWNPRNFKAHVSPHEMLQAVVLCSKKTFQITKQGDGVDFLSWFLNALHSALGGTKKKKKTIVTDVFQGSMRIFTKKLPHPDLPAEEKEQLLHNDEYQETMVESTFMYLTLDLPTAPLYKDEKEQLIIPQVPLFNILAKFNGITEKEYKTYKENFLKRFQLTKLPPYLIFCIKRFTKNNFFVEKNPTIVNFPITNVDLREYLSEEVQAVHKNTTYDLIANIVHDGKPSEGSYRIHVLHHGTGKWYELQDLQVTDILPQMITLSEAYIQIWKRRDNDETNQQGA
UniProt Q96BW1: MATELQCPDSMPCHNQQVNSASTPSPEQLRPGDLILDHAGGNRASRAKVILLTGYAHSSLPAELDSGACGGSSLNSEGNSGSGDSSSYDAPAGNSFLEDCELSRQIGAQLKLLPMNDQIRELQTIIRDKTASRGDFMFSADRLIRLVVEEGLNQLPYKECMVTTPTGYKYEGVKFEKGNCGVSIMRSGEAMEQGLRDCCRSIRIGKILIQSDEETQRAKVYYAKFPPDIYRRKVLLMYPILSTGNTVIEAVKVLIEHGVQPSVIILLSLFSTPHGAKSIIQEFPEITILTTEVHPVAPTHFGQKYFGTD
UniProt Q92995: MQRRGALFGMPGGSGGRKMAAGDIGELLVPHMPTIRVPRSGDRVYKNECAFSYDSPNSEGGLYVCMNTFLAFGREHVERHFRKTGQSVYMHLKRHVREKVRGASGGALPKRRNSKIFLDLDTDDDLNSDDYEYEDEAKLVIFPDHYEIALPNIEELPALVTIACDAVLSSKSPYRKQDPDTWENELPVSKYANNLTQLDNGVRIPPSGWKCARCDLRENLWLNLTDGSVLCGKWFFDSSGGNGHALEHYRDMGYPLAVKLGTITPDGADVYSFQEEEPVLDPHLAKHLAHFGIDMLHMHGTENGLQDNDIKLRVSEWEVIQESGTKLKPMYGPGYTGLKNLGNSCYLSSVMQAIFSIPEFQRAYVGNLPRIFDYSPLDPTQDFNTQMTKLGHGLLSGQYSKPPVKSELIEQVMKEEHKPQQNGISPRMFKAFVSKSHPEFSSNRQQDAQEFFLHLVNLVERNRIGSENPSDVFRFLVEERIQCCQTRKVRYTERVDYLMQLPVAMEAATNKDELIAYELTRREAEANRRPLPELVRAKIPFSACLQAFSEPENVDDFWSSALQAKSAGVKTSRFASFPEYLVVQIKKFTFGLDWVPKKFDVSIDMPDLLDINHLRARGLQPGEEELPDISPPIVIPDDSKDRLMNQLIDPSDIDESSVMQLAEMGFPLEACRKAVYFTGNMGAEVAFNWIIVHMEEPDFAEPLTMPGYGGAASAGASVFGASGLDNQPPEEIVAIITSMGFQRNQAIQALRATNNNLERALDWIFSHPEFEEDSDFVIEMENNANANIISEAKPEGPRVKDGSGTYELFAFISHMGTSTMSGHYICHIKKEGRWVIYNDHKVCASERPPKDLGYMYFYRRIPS
UniProt Q6UW78: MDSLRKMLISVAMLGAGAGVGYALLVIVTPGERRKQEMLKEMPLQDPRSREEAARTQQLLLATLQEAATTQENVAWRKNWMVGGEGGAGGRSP
UniProt Q86UV5: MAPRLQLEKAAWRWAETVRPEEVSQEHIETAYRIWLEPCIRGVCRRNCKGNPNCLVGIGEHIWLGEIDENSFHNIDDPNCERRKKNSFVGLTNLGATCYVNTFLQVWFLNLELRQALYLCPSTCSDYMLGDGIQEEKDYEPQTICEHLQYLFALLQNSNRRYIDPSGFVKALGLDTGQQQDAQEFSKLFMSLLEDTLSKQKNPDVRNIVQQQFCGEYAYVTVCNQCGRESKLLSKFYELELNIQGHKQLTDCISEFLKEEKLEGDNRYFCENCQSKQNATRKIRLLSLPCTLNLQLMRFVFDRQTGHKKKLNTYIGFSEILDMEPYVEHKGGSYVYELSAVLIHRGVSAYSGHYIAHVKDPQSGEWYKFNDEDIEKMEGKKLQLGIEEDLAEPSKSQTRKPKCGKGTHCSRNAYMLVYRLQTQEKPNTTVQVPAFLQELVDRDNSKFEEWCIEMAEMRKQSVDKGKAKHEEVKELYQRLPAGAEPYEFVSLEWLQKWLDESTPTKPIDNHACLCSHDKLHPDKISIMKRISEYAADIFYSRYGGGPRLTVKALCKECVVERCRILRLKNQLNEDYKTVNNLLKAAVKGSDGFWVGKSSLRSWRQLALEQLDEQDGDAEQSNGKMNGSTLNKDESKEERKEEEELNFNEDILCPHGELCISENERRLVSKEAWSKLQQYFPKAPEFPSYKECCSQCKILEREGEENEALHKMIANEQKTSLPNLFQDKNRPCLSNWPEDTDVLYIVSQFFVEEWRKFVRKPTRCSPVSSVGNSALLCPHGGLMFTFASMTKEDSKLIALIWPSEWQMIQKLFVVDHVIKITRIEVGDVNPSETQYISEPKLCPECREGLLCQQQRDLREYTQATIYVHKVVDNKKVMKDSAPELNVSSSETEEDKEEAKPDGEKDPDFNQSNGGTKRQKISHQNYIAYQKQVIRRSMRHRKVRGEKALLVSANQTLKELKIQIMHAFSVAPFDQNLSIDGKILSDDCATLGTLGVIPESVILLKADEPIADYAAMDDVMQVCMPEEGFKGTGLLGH
UniProt Q9BZX2: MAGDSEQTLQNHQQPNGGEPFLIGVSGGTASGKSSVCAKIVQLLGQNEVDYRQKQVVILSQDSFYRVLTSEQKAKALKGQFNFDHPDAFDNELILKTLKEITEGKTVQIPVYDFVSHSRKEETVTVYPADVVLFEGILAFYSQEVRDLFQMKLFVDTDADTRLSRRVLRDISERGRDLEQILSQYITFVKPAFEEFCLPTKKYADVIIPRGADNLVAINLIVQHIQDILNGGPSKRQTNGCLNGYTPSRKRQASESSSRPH
UniProt Q9Y3A2: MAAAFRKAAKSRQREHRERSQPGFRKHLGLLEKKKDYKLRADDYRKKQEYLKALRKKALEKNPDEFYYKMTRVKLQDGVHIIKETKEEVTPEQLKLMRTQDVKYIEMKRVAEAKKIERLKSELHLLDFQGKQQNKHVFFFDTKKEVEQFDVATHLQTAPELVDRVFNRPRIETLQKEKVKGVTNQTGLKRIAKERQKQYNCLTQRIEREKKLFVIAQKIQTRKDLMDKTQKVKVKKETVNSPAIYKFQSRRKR
UniProt Q96T88: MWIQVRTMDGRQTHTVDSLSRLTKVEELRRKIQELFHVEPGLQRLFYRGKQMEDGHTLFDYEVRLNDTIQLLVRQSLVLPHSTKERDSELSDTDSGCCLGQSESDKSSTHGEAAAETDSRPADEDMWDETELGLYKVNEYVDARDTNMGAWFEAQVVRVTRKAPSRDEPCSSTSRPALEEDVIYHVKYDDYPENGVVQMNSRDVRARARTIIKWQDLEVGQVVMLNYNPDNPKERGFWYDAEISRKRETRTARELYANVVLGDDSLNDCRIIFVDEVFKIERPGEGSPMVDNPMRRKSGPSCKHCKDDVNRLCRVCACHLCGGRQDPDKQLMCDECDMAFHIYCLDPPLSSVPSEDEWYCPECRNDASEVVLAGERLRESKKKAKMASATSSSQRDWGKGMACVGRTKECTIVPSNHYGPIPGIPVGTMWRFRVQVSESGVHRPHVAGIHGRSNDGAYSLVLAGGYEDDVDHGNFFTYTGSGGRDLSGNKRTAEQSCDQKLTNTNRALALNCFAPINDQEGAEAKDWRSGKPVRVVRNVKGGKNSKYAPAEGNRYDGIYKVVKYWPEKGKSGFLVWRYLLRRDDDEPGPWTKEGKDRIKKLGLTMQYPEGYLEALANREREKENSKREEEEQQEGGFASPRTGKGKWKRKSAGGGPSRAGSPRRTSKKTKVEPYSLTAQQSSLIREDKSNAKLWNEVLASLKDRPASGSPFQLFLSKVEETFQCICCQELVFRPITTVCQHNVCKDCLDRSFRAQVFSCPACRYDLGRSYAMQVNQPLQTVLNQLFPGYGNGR
UniProt O60763: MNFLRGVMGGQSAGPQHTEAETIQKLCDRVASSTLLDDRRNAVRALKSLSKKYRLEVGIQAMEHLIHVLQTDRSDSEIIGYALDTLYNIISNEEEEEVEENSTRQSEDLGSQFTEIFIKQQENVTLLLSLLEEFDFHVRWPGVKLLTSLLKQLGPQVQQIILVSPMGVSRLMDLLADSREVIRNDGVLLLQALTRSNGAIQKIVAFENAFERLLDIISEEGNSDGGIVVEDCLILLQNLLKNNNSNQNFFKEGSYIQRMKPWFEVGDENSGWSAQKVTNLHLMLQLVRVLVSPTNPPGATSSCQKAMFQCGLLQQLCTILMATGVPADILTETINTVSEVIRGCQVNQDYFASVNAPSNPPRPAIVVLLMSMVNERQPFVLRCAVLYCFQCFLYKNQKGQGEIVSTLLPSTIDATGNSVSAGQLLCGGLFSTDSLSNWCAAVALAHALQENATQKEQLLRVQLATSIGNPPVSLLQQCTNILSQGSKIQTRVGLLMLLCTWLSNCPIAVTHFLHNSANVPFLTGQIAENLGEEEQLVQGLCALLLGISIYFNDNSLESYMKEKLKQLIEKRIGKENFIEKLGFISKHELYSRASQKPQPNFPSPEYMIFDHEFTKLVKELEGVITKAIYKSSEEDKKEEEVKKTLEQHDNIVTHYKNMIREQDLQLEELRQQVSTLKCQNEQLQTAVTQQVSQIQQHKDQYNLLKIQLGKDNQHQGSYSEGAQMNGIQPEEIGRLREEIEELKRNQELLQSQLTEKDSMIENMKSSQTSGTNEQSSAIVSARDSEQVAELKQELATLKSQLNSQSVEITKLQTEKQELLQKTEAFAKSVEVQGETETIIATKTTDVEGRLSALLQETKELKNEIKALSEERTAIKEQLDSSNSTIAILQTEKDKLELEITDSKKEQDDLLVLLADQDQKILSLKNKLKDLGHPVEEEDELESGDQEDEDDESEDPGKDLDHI
UniProt P51809, whole entry, looked up: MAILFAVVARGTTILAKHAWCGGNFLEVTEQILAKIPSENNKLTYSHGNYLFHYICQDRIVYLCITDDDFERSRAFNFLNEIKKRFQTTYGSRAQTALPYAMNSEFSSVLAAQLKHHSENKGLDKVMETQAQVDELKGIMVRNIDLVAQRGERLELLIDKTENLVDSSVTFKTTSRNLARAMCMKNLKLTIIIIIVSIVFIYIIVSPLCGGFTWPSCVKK
UniProt P08670, whole entry, looked up: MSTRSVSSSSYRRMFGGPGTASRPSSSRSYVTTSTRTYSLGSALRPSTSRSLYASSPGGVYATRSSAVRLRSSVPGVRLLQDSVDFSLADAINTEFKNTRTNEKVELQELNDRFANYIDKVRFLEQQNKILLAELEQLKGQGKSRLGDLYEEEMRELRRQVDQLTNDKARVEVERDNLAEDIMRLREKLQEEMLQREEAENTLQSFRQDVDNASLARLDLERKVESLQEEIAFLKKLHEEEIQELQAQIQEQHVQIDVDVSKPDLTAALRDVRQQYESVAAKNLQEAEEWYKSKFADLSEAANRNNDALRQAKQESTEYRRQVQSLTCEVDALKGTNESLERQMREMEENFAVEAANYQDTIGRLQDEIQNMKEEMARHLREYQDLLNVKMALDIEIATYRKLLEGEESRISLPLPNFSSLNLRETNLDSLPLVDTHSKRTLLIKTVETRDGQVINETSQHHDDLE
UniProt Q9NQZ2: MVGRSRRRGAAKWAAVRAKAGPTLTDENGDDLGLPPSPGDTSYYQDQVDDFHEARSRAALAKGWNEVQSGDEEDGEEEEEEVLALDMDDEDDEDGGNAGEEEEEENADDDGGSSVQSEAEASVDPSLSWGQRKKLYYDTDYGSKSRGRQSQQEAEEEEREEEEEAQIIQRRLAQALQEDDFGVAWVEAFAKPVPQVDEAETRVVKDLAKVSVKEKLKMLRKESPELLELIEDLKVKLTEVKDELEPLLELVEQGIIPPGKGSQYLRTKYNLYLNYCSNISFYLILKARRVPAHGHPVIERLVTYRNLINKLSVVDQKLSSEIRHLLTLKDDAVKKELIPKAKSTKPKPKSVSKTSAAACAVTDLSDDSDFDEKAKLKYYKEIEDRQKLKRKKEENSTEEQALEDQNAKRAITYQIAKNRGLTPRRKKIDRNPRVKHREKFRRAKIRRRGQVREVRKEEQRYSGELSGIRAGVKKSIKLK

The other results are listed elsewhere or left out.

Compound in the first experiment: C1=CC=C(C=C1)[C@H](COC2=CC3=C(C=C2)NC(=O)N3)NC(=O)C4=CC=CN(C4=O)CC5=CC(=C(C=C5)F)F
Description: log2 fold change, soluble protein after heating vs DMSO (PISA); higher = thermal stabilisation; K562 lysate, 10 uM; active = over 0.2 and 3.5 SD of the protein, either way, in both replicates (recomputed). The gist of the method: (§1)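 Dounce homogenisation of K562 pellets in PBS pH 7.4 with 1 mM MgCl2 produced a crude extract, used at 1 mg/mL protein. Exposure to 10 μM compound lasted 30 min, and aliquots were then heated for 3 min across 48°C-58°C, pooled and brought to 0.5% NP-40 at 4°C. The supernatant after 21,000xg for 90 min was quantified by TMTpro 16plex LC-MS/MS with channel sums equalised. Duplicate values are given as log-two fold change in thermal stability relative to solvent controls.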
In the case of UQCRFS1 (UniProt P47985), the log2 fold change is inactive: -0.043.

On to USP39 (UniProt Q53GS9), for which the log2 fold change was inactive: 0.02.

With UPRT (UniProt Q96BW1), the log2 fold change is inactive: 0.024.

With USP13 (UniProt Q92995), the log2 fold change was inactive: -0.182.

On to UQCC3 (UniProt Q6UW78), for which the log2 fold change is inactive: -0.01.

Consider USP48 (UniProt Q86UV5), for which the log2 fold change is inactive: -0.104.

With UCK2 (UniProt Q9BZX2), the log2 fold change is inactive: 0.03.

On to UTP11 (UniProt Q9Y3A2), for which the log2 fold change is inactive: -0.289.

On to UHRF1 isoform 2 (UniProt Q96T88), for which the log2 fold change was inactive: -0.13.

Compound in the next experiment: CC1=C(SC2=C1C(=N[C@H](C3=NN=C(N32)C)CC(=O)N)C4=CC=C(C=C4)Cl)C
The experiment is described as above. In outline: as §1
On to USE1 (UniProt Q9NZ43), for which the log2 fold change was inactive: 0.008.

As to UPF1 (UniProt Q92900), the log2 fold change is inactive: 0.006.

USO1 isoform 2 (UniProt O60763): the log2 fold change is inactive: 0.005.

USP47 isoform 4 (UniProt Q96K76): the log2 fold change is inactive: 0.01.

URM1 isoform 2 (UniProt Q9BTM9): the log2 fold change is inactive: -0.003.

USO1 (UniProt O60763): the log2 fold change was inactive: 0.078.

Consider VAMP3 (UniProt Q15836), for which the log2 fold change was inactive: -0.102.

For the target UQCR11 (UniProt O14957), the log2 fold change is inactive: -0.282.

On to VAMP7 (UniProt P51809), for which the log2 fold change is inactive: 0.04.

As for UMPS (UniProt P11172), the log2 fold change was inactive: 0.02.

Take USP19 isoform 6 (UniProt O94966): the log2 fold change is inactive: 0.061.

On to USP7 (UniProt Q93009), for which the log2 fold change was inactive: -0.007.

USP10 isoform 2 (UniProt Q14694): the log2 fold change is inactive: 0.029.

VIM (UniProt P08670): the log2 fold change was inactive: -0.028.

For UGDH (UniProt O60701), the log2 fold change is inactive: 0.001.

With UNC119B (UniProt A6NIH7), the log2 fold change was inactive: -0.034.

In the case of VEZF1 (UniProt Q14119), the log2 fold change was inactive: -0.049.

In the case of UIMC1 (UniProt Q96RL1), the log2 fold change was inactive: 0.001.

Turning to UQCRC1 (UniProt P31930), the log2 fold change is inactive: 0.004.

For the target VIL1 (UniProt P09327), the log2 fold change was inactive: -0.234.

Regarding UTP3 (UniProt Q9NQZ2), the log2 fold change is inactive: -0.035.

Turning to UPF2 (UniProt Q9HAU5), the log2 fold change was inactive: 0.013.

VDAC3 (UniProt Q9Y277): the log2 fold change was inactive: 0.033.

For UQCRFS1 (UniProt P47985), the log2 fold change was inactive: 0.005.

For USP39 (UniProt Q53GS9), the log2 fold change is inactive: -0.013.

As for UPRT (UniProt Q96BW1), the log2 fold change was inactive: -0.011.

With USP13 (UniProt Q92995), the log2 fold change is inactive: -0.091.

On to UQCC3 (UniProt Q6UW78), for which the log2 fold change is inactive: 0.025.

As to USP48 (UniProt Q86UV5), the log2 fold change is inactive: -0.028.

Regarding UCK2 (UniProt Q9BZX2), the log2 fold change is inactive: -0.013.

On to UTP11 (UniProt Q9Y3A2), for which the log2 fold change was inactive: 0.051.

For UHRF1 isoform 2 (UniProt Q96T88), the log2 fold change is inactive: -0.002.

Compound in the next experiment: CC1=C2C(=CC=C1)N=C(N(C2=O)C3=CC=CC=C3C)CN4C=NC5=C(N=CN=C54)N
The description is as above. The gist of the method: as §1
Regarding USE1 (UniProt Q9NZ43), the log2 fold change is inactive: -0.119.

Turning to UPF1 (UniProt Q92900), the log2 fold change was inactive: 0.005.

As for USO1 isoform 2 (UniProt O60763), the log2 fold change is inactive: 0.004.

Regarding USP47 isoform 4 (UniProt Q96K76), the log2 fold change is inactive: 0.018.

Regarding URM1 isoform 2 (UniProt Q9BTM9), the log2 fold change was inactive: 0.072.

Take USO1 (UniProt O60763): the log2 fold change is inactive: -0.041.

Regarding VAMP3 (UniProt Q15836), the log2 fold change is inactive: 0.077.

As to UQCR11 (UniProt O14957), the log2 fold change is inactive: 0.119.

Turning to VAMP7 (UniProt P51809), the log2 fold change is inactive: -0.009.

As to UMPS (UniProt P11172), the log2 fold change was inactive: -0.006.

Regarding USP19 isoform 6 (UniProt O94966), the log2 fold change is inactive: -0.001.

As for USP7 (UniProt Q93009), the log2 fold change was inactive: 0.006.

On to USP10 isoform 2 (UniProt Q14694), for which the log2 fold change is inactive: 0.

On to VIM (UniProt P08670), for which the log2 fold change is inactive: -0.01.

For the target UGDH (UniProt O60701), the log2 fold change was inactive: -0.004.

As to UNC119B (UniProt A6NIH7), the log2 fold change was inactive: 0.095.

For the target VEZF1 (UniProt Q14119), the log2 fold change was inactive: 0.016.

With UIMC1 (UniProt Q96RL1), the log2 fold change was inactive: 0.039.

Consider UQCRC1 (UniProt P31930), for which the log2 fold change is inactive: 0.023.

As to VIL1 (UniProt P09327), the log2 fold change is inactive: 0.074.

Consider UTP3 (UniProt Q9NQZ2), for which the log2 fold change is inactive: 0.076.

UPF2 (UniProt Q9HAU5): the log2 fold change is inactive: 0.009.

As for VDAC3 (UniProt Q9Y277), the log2 fold change is inactive: 0.004.

As for UQCRFS1 (UniProt P47985), the log2 fold change was inactive: -0.012.

Take USP39 (UniProt Q53GS9): the log2 fold change is inactive: 0.032.

As for UPRT (UniProt Q96BW1), the log2 fold change is inactive: -0.014.

With USP13 (UniProt Q92995), the log2 fold change was inactive: -0.089.

Turning to UQCC3 (UniProt Q6UW78), the log2 fold change was inactive: 0.26.

In the case of USP48 (UniProt Q86UV5), the log2 fold change was inactive: -0.029.

UCK2 (UniProt Q9BZX2): the log2 fold change is inactive: -0.062.

Take UTP11 (UniProt Q9Y3A2): the log2 fold change was inactive: 0.114.

With UHRF1 isoform 2 (UniProt Q96T88), the log2 fold change was inactive: 0.026.
